Laboratory results taken from patent US20020055130A1, “Method and product for regulating apoptosis” (National Jewish Center for Immunology and Respiratory …, priority 1997, published 2002).
At least one structure is not confirmed: it was looked up by name or label, or the drawing left a doubt.

System: L929 cells
Assay: TNFα-mediated apoptosis of L929 cells (neutral red assay, propidium iodide staining)
Format: cell-based, murine
Experimental: Cell lines and culture. L929 cells (ATCC CCL1 were maintained in Dulbecco's modified Eagle's medium with 5% newborn claf serum and 5% bovine calf serum (BCS) supplemented with 100 ug/ml streptomycin and 100U/ml penicillin. The cells were grown in 10 cm dishes at 37° C. in 7.5% CO2. Cells were made quiescent where indicated by incubation in Dulbecco's modified Eagle's medium and 0.1% bovine serum albumin for 24 h. Recombinant murine TNFα and recombinant humanbFGF (147aa) were from R&D Systems, Minneapolis, Minn. Cells were pretreated where indicated with the MEK-1 inhibitor PD#098059 (Parke-Davis Pharmaceutical Corp. Ann Arbor, Mich.) for 1 h at 37° C. Cells were stimulated by incubation with the indicated cytokine or growth factor for various times at 37° C. […]
Neutral Red Assay Uptake of the dye neutral red was used as one measure of cell viability following cytokine or growth factor treatment (Finter, N. B. (1969) J. Gen Virol. 5:419-427). […] The neutral red was extracted with 1.0 ml of 50% ethanol, 50 mM Na-citrate pH 4.2 and absorbency was measured at […].
Propidium iodide staining Cells were plated on glass chamber slides (Nunc, Naperville, Ill.) at a concentration of 0.2-0.6×10^5 cells/ml. […] PI fluorescence was observed using a Nikon inverted microscope equipped with epifluorescence and a […] filter. Images were analyzed using IP lab.

With COC[C@H]1OC(=O)c2coc3c2[C@@]1(C)C1=C(C3=O)[C@@H]2CCC(=O)[C@@]2(C)C[C@H]1OC(C)=O [wortmannin] the “effect on TNFα-mediated cell death / apoptosis” value was “did not influence the cell death response to TNFα” and the “effect on the protective action of bFGF against TNFα-mediated cell death” value was “nor did it inhibit the protective response to bFGF”.
